In the supplement of paper PMC11006884:
Only a part is listed here, and it is no random draw.

Chains of the proteins cited; added tags and fusions are not shown. Lines headed by an entry give the natural chain unless they say otherwise; changes in a name come on top.
UniProt Q7Z6Z7, whole entry, looked up: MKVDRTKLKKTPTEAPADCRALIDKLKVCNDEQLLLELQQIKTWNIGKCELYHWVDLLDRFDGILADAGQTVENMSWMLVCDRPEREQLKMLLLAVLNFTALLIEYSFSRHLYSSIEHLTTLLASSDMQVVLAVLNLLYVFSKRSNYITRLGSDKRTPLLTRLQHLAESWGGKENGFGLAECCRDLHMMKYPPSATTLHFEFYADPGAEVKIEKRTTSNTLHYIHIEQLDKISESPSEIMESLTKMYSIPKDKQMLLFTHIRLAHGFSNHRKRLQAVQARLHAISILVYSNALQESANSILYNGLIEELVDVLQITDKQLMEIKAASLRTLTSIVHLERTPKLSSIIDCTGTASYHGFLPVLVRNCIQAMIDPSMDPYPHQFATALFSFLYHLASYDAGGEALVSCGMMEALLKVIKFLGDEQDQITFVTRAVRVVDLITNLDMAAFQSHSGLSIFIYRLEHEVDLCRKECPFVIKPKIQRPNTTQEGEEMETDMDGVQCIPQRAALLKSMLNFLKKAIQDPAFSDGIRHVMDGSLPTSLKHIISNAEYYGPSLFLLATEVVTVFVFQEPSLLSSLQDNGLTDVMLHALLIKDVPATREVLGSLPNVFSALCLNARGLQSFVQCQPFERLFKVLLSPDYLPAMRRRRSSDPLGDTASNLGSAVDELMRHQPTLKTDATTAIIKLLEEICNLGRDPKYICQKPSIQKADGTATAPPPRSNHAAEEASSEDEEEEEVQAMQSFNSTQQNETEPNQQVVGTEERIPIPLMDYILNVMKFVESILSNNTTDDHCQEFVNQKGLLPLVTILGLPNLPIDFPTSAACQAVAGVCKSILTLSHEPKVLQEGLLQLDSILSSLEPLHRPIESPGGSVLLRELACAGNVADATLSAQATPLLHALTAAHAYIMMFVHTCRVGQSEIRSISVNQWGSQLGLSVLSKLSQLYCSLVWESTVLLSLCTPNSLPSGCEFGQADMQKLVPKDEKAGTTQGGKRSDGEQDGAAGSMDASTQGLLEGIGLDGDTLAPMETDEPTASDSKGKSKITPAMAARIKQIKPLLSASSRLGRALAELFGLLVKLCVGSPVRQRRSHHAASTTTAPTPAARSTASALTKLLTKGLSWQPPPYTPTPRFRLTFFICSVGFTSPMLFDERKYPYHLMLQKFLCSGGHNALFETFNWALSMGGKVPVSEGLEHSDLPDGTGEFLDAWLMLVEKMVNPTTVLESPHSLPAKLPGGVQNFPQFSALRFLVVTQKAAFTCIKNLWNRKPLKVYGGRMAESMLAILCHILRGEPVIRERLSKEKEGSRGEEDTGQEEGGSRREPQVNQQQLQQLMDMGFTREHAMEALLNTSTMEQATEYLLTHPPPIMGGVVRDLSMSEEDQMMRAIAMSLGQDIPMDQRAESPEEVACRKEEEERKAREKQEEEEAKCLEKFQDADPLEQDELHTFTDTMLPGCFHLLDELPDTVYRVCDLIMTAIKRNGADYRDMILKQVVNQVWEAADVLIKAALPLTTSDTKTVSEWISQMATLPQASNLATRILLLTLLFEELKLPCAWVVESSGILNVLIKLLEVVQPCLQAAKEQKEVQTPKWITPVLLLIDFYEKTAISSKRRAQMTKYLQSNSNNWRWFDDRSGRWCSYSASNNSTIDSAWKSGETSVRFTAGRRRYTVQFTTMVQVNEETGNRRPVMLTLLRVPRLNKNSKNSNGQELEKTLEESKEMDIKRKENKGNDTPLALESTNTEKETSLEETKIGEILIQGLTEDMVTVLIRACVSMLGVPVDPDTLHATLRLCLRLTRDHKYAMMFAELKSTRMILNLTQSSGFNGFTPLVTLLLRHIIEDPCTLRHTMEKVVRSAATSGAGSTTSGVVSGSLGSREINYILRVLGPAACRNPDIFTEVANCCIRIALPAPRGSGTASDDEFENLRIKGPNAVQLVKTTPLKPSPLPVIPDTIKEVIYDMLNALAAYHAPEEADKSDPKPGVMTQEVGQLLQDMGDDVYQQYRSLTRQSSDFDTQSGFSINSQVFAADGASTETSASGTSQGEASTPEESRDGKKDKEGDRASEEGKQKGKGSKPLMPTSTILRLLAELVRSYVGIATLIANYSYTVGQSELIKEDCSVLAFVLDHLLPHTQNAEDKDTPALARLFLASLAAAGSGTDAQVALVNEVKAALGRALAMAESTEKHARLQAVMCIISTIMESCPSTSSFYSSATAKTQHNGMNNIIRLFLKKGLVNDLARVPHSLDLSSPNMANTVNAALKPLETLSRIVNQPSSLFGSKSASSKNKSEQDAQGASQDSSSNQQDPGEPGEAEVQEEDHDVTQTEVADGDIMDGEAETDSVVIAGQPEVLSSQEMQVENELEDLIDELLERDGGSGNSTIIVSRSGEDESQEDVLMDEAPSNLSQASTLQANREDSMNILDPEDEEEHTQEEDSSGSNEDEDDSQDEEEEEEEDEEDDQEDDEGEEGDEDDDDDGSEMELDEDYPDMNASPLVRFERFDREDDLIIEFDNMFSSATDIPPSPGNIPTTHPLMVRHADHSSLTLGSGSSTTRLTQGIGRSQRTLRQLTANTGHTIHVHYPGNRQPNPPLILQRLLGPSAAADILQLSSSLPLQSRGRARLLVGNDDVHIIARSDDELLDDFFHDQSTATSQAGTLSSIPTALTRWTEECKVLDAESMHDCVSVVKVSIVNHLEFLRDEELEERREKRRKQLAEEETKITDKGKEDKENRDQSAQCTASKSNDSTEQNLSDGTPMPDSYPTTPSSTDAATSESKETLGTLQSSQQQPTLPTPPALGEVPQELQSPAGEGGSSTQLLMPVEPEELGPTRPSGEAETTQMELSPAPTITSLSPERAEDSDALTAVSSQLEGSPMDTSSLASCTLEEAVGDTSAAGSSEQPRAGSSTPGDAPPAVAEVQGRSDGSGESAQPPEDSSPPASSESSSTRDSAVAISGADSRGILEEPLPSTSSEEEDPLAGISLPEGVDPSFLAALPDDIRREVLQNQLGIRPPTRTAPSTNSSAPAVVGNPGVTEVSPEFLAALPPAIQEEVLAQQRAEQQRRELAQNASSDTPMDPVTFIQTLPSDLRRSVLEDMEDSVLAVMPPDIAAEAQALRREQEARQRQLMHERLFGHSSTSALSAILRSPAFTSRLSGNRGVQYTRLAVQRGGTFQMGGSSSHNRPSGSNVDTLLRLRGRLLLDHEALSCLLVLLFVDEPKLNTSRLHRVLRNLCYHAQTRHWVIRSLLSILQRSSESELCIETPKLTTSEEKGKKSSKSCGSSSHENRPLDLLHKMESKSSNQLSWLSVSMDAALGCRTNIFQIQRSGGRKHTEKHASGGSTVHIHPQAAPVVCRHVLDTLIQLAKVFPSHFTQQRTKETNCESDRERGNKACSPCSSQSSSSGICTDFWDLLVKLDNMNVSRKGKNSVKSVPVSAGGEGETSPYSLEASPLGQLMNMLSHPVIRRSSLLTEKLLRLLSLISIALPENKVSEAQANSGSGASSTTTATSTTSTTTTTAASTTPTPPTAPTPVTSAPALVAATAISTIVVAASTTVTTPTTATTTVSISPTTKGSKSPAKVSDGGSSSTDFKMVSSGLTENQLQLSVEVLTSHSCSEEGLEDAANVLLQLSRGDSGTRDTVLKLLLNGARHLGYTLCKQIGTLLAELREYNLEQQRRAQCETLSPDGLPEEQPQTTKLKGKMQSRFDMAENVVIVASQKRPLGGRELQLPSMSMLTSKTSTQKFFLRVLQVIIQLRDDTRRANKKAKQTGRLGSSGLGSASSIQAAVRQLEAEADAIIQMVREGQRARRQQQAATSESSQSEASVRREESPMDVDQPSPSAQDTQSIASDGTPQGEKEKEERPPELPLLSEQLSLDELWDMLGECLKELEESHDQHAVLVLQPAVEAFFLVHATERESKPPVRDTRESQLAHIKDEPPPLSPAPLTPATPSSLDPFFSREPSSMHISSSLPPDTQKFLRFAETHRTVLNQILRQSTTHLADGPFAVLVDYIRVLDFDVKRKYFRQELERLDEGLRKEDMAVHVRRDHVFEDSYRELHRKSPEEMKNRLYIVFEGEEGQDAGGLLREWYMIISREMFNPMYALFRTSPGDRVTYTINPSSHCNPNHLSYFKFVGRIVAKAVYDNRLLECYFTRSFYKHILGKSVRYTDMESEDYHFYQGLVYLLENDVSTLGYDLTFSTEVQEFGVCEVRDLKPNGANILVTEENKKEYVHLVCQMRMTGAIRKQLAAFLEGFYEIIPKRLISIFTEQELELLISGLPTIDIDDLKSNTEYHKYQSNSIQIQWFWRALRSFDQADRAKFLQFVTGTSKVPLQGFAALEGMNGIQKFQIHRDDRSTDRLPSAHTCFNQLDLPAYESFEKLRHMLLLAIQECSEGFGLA
UniProt Q7L5N1: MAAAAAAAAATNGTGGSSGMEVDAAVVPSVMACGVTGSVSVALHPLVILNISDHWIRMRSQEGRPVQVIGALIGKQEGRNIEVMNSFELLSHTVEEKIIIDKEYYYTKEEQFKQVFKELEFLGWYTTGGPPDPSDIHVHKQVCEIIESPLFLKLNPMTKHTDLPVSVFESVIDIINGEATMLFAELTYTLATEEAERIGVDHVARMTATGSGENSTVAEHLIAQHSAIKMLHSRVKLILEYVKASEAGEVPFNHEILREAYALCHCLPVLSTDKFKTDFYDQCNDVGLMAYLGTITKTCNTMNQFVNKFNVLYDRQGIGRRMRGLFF
UniProt Q7Z7L1: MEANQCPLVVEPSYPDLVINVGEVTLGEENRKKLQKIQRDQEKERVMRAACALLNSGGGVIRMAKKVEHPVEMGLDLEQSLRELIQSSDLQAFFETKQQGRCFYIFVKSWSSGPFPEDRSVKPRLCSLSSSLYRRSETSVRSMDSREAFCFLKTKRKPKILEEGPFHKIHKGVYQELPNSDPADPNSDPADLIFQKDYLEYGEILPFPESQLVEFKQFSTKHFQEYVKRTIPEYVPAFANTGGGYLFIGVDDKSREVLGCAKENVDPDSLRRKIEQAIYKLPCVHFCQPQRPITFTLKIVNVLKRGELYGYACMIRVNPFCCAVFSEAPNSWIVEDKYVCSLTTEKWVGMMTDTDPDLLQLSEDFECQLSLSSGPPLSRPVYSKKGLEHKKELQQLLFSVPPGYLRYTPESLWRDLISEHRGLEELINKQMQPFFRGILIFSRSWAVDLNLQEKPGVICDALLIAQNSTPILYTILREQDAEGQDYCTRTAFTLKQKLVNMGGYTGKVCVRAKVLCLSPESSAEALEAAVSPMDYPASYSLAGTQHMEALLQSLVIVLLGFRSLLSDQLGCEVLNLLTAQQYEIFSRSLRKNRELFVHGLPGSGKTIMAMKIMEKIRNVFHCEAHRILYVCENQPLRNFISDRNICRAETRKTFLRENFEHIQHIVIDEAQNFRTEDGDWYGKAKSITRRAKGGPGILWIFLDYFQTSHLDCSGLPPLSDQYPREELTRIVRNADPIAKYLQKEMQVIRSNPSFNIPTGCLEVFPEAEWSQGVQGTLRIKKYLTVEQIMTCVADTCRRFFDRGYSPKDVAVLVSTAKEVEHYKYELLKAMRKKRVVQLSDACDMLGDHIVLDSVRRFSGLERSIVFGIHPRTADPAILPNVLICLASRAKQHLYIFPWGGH
UniProt Q7L8W6: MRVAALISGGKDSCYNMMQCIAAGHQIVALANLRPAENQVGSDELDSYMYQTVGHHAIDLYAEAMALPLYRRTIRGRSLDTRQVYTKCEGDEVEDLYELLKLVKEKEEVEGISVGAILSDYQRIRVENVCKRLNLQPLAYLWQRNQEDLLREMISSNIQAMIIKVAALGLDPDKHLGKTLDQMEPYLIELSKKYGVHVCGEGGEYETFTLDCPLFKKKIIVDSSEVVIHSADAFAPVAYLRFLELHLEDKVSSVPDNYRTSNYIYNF
UniProt Q7Z5L9: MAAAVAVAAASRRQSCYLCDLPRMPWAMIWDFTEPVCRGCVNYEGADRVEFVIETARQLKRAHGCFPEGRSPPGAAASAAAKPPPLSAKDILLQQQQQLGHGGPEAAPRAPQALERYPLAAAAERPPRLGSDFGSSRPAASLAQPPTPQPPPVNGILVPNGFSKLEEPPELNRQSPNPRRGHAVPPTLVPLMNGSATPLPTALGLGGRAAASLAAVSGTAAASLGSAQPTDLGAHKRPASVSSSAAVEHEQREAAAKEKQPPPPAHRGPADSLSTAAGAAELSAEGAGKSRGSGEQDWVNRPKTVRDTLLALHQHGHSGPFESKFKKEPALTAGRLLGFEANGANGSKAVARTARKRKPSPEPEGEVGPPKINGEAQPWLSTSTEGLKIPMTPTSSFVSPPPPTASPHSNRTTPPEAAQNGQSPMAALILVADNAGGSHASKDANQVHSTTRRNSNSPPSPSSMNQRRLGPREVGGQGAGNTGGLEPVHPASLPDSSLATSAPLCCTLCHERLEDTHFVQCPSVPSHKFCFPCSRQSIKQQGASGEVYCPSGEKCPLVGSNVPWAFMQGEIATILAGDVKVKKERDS
UniProt Q86WQ0: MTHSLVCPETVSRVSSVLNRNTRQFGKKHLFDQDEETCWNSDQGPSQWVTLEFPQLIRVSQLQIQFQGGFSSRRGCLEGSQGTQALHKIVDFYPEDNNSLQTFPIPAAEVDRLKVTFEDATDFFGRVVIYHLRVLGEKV

What follows are targets tested with COC(=O)C#Cc1ccccc1 [methyl 3-phenylpropiolate] (assay: log2 ratio of iodoacetamide-alkyne labeling of the cysteine site, DMSO over compound (competition); higher = stronger covalent engagement of the cysteine by the compound, active = 1 or more). Details: 500 µM; treatment time 1 h; system: HEK293T cell lysate.
Method in brief: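 After 1 h at ambient temperature with vehicle or electrophile (500 µM), HEK293T lysate (2 mg/mL) was labelled for 1 h with iodoacetamide alkyne and clicked to sCIP-TMT reagents. Pooled samples were trypsin-digested overnight at 37 °C, streptavidin-enriched, acid-eluted and analysed by Orbitrap Eclipse LC-MS/MS with FAIMS, then quantified in FragPipe over three replicates with duplicate channels. A cysteine's log2 competition ratio is its mean control-channel over mean compound-channel reporter intensity. Cysteines quantified in only one replicate were not included.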

log2 ratio of iodoacetamide-alkyne labeling, inactive:
CEP97 C484 (UniProt Q8IW35) 0.117
HUWE1 C3658 (UniProt Q7Z6Z7) 0.24
HUWE1 C689 (UniProt Q7Z6Z7) 0.0285
PEG10 C119 (UniProt Q86TG7) 0.397
DCXR C138 (UniProt Q7Z4W1) 0.126
UniProt Q86U38_C123 0.313
ZFYVE16 C174 (UniProt Q7Z3T8) 0.35
SUPV3L1 C175 (UniProt Q8IYB8) 0.138
COPS6 C283 (UniProt Q7L5N1) 0.171
SLFN11 C884 (UniProt Q7Z7L1) 0.199
USP48 C80 (UniProt Q86UV5) 0.174
HUWE1 C3239 (UniProt Q7Z6Z7) 0.243
DHX30 C461 (UniProt Q7L2E3) 0.193
NUP54 C180 (UniProt Q7Z3B4) 0.361
SND1 C152 (UniProt Q7KZF4) 0.4
UniProt Q7L8W6_C88 0.839
WDFY1 C401 (UniProt Q8IWB7) 0.225
CCDC50 C18 (UniProt Q8IVM0) 0.414
UniProt Q8IVS2_C62 0.4
RSRC2 C382 (UniProt Q7L4I2) 0.217
IRF2BP2 C65 (UniProt Q7Z5L9) 0.21
SH3RF1 C658 (UniProt Q7Z6J0) 0.0971
IRF2BP1 C363 (UniProt Q8IU81) 0.0738
SLFN11 C51 (UniProt Q7Z7L1) 0.0378
UniProt Q7RTV0_C61 0.11
SLX4 C1269 (UniProt Q8IY92) 0.753
UniProt Q7Z5K2_C293 0.472
UniProt Q7Z2T5_C320 0.767
SCD5 C14 (UniProt Q86SK9) 0.36
NR2C2AP C7 (UniProt Q86WQ0) 0.0291
MGA C2202 (UniProt Q8IWI9) 0.578
UniProt Q8IXM2_C66 0.167
SMC5 C726 (UniProt Q8IY18) 0.249
UniProt Q7Z5K2_C675 0.557
KIF21A C299 (UniProt Q7Z4S6) 0.303
PDSS2 C71 (UniProt Q86YH6) 0.666
ZFYVE16 C895 (UniProt Q7Z3T8) 0.597

Pulled one by one from the list above, two records:
log2 ratio of iodoacetamide-alkyne labeling, inactive:
SH3RF1 C658 (UniProt Q7Z6J0) 0.0971
WDFY1 C401 (UniProt Q8IWB7) 0.225
